Data as given in PubChem BioAssay AID652259 (Drosophila RNAi Screening Center, 2013)
Purpose: 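Identify new Wingless signalling regulators in fly cells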 (primary screen). Cells: Drosophila clone 8 imaginal disc epithelial cells. Reagent: long dsRNA against Drosophila genes. Challenge: pathway stimulated by co-transfected Wingless expression plasmid. Detection: 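Firefly luciferase from a tcf-site Wingless reporter, measured alongside co-transfected Renilla luciferase that tracks transfection; pathway stimulated by a Wingless plasmid; the firefly-to-Renilla ratio is not deposited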. Reading the numbers: firefly reporter light: higher = more Wg reporter light, before normalisation; Renilla control light: higher = more transfected or surviving cells. Active means: 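a knock-down is a candidate when at least two out of four statistical tests show it departing from its plate mean; one test alone signals a weak candidate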. Meaning of the calls: active = candidate regulator (raises or lowers reporter); inactive = not a candidate.
The screen tested about 22,000 reagents; below is an unselected part of those that have a named target and a result. In the full data, 233 (1.1%) are marked active. 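Light values are raw, unnormalised plate reads; the ratio scores behind the reporter calls were not deposited.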 A plus sign joins genes that one reagent is predicted to hit. Not given: the amount of reagent, the time to read-out, the dose of the treatment.

Target gene | amplicon | reporter change call, replicate 1 | firefly reporter light, replicate 1 | firefly reporter light, replicate 2 | Renilla control light, replicate 1 | Renilla control light, replicate 2 | Call
rdgBbeta | DRSC07672 | – | 8976 | – | 3402 | – | inactive
CG17187 | DRSC15181 | – | 13120 | – | 3944 | – | inactive
Osi14 | DRSC12368 | – | 10064 | – | 2401 | – | inactive
TwdlX | DRSC19151 | – | 4576 | – | 1702 | – | inactive
Gem4b + Gem4c + Glos | DRSC18244 | – | 17057 | – | 7216 | – | inactive
CG10344 | DRSC04066 | Wg reporter activity raised | 6252 | 8828 | 578 | 3600 | inactive
CR15821 | DRSC08481 | – | 6645 | – | 3398 | – | inactive
CG8476 | DRSC16426 | – | 14579 | – | 2653 | – | inactive
Socs16D | DRSC20087 | – | 16376 | – | 7488 | – | inactive
Hacd2 | DRSC03181 | – | 3360 | 6201 | 1538 | 3308 | inactive
nemy | DRSC05357 | – | 20688 | – | 17265 | – | inactive
nemy | DRSC07262 | – | 21373 | – | 7360 | – | inactive
CG13609 | DRSC14612 | – | 34215 | – | 23505 | – | inactive
CG13609 | DRSC22843 | – | 4.35e5 | 4.22e5 | 2.03e5 | 1.66e5 | inactive
CG17560 | DRSC15242 | – | 12746 | – | 3953 | – | inactive
Cdc16 | DRSC16920 | – | 14135 | – | 9465 | – | inactive
CG4666 | DRSC18379 | – | 27648 | – | 13005 | – | inactive
CG34204 | DRSC03897 | – | 16668 | – | 8371 | – | inactive
Chrac-16 | DRSC20343 | – | 13729 | – | 6230 | – | inactive
CG14883 | DRSC15007 | – | 17861 | – | 4182 | – | inactive
CG6136 | DRSC15975 | – | 7585 | – | 2954 | – | inactive
ND-49 | DRSC17151 | – | 17611 | – | 11984 | – | inactive
Papst2 | DRSC10924 | – | 4608 | – | 1728 | – | inactive
CheB42b | DRSC22878 | – | 5.58e5 | 6.49e5 | 2.23e5 | 1.87e5 | inactive
mu2 | DRSC08726 | – | 19656 | – | 7575 | – | inactive
mu2 | DRSC21534 | – | 4.43e5 | 4.75e5 | 1.85e5 | 1.74e5 | inactive
CG17672 | DRSC09230 | – | 2281 | – | 361 | – | inactive
CG17672 | DRSC10278 | – | 10007 | – | 3340 | – | inactive
Jhbp3 | DRSC12247 | – | 13187 | – | 4903 | – | inactive
et | DRSC19582 | – | 21322 | – | 9659 | – | inactive
CG34056 | DRSC08374 | – | 3994 | – | 2378 | – | inactive
CG7320 | DRSC10810 | – | 5032 | – | 2509 | – | inactive
RhoGEF3 | DRSC08266 | – | 19482 | 7.30e5 | 5634 | 3.49e5 | inactive
RhoGEF3 | DRSC08351 | – | 5510 | – | 2416 | – | inactive
RhoGEF3 | DRSC08352 | – | 4891 | – | 2080 | – | inactive
RhoGEF3 | DRSC08353 | – | 4756 | – | 1946 | – | inactive
tkv | DRSC00860 | – | 28947 | – | 11232 | – | inactive
tkv | DRSC03623 | – | 5335 | – | 2720 | – | inactive
tkv | DRSC22606 | – | 5.45e5 | 5.44e5 | 1.92e5 | 19942 | inactive
CG5089 | DRSC06914 | – | 12608 | – | 3944 | – | inactive
Mpcp2 | DRSC11226 | – | 4982 | – | 2608 | – | inactive
Vago | DRSC19833 | – | 21027 | – | 10968 | – | inactive
CG12075 | DRSC17801 | – | 2147 | 5205 | 808 | 2022 | inactive
Cht8 | DRSC04546 | – | 3420 | 6074 | 890 | 2685 | inactive
CG1812 | DRSC20557 | – | 3738 | 10553 | 1592 | 4016 | inactive
Rpp30 | DRSC00320 | – | 12807 | – | 5520 | – | inactive
pn | DRSC18822 | – | 1830 | 4361 | 1001 | 1701 | inactive
CG12020 | DRSC08226 | – | 5289 | – | 2534 | – | inactive
Pdk1 | DRSC08682 | – | 5376 | – | 1721 | – | inactive
SAK | DRSC11879 | – | 14134 | – | 5312 | – | inactive
mbl | DRSC05657 | – | 18631 | – | 11152 | – | inactive
mbl | DRSC06449 | Wg reporter activity raised | 16252 | – | 1316 | – | active
mbl | DRSC07651 | – | 4177 | – | 1143 | – | inactive
CG2652 | DRSC18501 | – | 3843 | 10205 | 1654 | 3361 | inactive
CG2652 | DRSC22576 | – | 8.15e5 | 7.67e5 | 3.69e5 | 3.54e5 | inactive
GstE4 | DRSC06674 | – | 6501 | – | 2010 | – | inactive
saturn | DRSC09303 | – | 4088 | – | 1523 | – | inactive
CG42404 | DRSC15558 | – | 10856 | – | 4103 | – | inactive
CG32719 | DRSC17525 | – | 4038 | – | 1845 | – | inactive
daw | DRSC00479 | – | 11153 | – | 4378 | – | inactive
CG16865 | DRSC01904 | – | 1719 | 4211 | 850 | 2828 | inactive
CG11029 | DRSC02119 | – | 2552 | 6136 | 891 | 2055 | inactive
Cht9 | DRSC04079 | – | 9700 | – | 2262 | – | inactive
Spps | DRSC15856 | – | 1992 | 4443 | 865 | 928 | inactive
Mpi | DRSC16417 | – | 11896 | – | 3776 | – | inactive
CG12814 | DRSC14552 | – | 7208 | – | 2322 | – | inactive
CG12814 | DRSC14553 | – | 14690 | – | 2656 | – | inactive
Atg9 | DRSC06848 | – | 9258 | – | 2820 | – | inactive
lbk | DRSC07178 | – | 12064 | – | 2745 | – | inactive
lncRNA:CR31526 | DRSC21520 | – | 4.54e5 | 5.16e5 | 2.12e5 | 1.99e5 | inactive
f-cup | DRSC14139 | – | 11270 | – | 2902 | – | inactive
msn | DRSC07990 | – | 2908 | – | 1091 | – | inactive
msn | DRSC08498 | – | 6992 | – | 3043 | – | inactive

Entries above marked active (1):
Target gene | amplicon | reporter change call, replicate 1 | firefly reporter light, replicate 1 | firefly reporter light, replicate 2 | Renilla control light, replicate 1 | Renilla control light, replicate 2 | Call
mbl | DRSC06449 | Wg reporter activity raised | 16252 | – | 1316 | – | active
